The target of this assay is T1, human AspH (His6-AspH315–758) (Homo sapiens, UniProt Q12797).
T1 construct: N-Terminally His6-tagged human AspH315–758 (His6-AspH315–758) was produced in Escherichia coli BL21 (DE3) cells; made in house; host or cells: Escherichia coli BL21 (DE3), pET-28a(+) vector
T1 sequence (Q12797 315-758): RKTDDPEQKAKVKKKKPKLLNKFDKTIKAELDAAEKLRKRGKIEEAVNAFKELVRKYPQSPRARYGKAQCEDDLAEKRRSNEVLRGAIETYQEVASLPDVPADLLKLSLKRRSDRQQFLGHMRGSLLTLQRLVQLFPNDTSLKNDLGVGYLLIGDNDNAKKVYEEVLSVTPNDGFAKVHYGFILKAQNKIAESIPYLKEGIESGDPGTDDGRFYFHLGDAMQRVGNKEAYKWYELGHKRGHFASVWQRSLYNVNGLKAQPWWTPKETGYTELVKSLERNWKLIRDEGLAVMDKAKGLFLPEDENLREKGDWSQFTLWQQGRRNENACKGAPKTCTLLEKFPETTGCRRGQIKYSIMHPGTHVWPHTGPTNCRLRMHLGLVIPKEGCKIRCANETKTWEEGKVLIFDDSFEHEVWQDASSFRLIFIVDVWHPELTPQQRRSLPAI
The assay is described as follows: SPE-MS AspH inhibition assay (hFX-CP101-119 substrate hydroxylation). It is filed as biochemical.

For `CC[C@H](CO)Nc1nc(NCc2ccccc2)c2ncn(C(C)C)c2n1` [Roscovitine_Selicilib], the “Plate 1 (% inhibition)” value amounted to 2.35% and the “Plate 1-duplicate (% inhibition)” value was found to be 3.78%.
